Measurements reported in PubChem BioAssay AID1224831 (NIAID, 2016)
This is one part, drawn at random, of about 3,500 reagents tested. In the full data, 731 (21%) got an active call. 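Active means either lowered or raised reporter signal; the gene-median score did not drive the per-siRNA calls.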 Reagents against one gene are numbered here. Reagent sequences are not shown.

Aim: 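Confirming genome-wide hits on LPS-triggered TNF-alpha induction with independent siRNA sequences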 (follow-up of hits)
System: human THP-1 B5 monocytic leukaemia cells carrying a TNF promoter luciferase reporter, made macrophage-like with PMA
Reagent: single siRNA against human genes, 50 nM
Time to read-out: about 68 h of knock-down, then 4 h LPS
Treatment: LPS (Salmonella minnesota, TLR-grade) at 10 ng/ml for 4 h; PMA 5 ng/ml present during knock-down
Measurement: 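TNF promoter reporter read as dual luciferase ratio after 4 h LPS, normalised per plate to its median, given as replicate mean robust z-score per siRNA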
Reading the numbers: TNF reporter z-score: higher = stronger LPS-induced TNF reporter signal; z-score, median over gene's siRNAs: higher = stronger TNF reporter signal across the gene's siRNAs
Rule for the call: 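Two-sided call: reduced or raised TNF reporter signal counts as active once mean z reaches about -1 or below, or about 1.5 or above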
Meaning of the calls: active = changed TNF reporter (either direction); inactive = little change

target,reagent,"TNF reporter z-score, replicate mean","z-score, median over gene's siRNAs",call
SLC24A3 (GeneID 57419),1,1.63,0.165,active
SLC24A3 (GeneID 57419),2,0.18,0.165,inactive
SLC24A3 (GeneID 57419),3,0.38,0.165,inactive
SLC24A3 (GeneID 57419),4,0.15,0.165,inactive
SLC24A3 (GeneID 57419),5,-0.13,0.165,inactive
SLC24A3 (GeneID 57419),6,-1.93,0.165,active
TENT4B (GeneID 64282),1,2.36,1.13,active
TENT4B (GeneID 64282),2,1.58,1.13,active
TENT4B (GeneID 64282),3,0.39,1.13,inactive
TENT4B (GeneID 64282),4,0.68,1.13,inactive
TENT4B (GeneID 64282),5,-0.52,1.13,inactive
TENT4B (GeneID 64282),6,2.46,1.13,active
MRPS10 (GeneID 55173),1,2.15,0.175,active
MRPS10 (GeneID 55173),2,0.27,0.175,inactive
MRPS10 (GeneID 55173),3,-0.82,0.175,inactive
MRPS10 (GeneID 55173),4,-0.07,0.175,inactive
MRPS10 (GeneID 55173),5,3.94,0.175,active
MRPS10 (GeneID 55173),6,0.08,0.175,inactive
RNASEL (GeneID 6041),1,-0.05,0.51,inactive
RNASEL (GeneID 6041),2,0.62,0.51,inactive
RNASEL (GeneID 6041),3,0.47,0.51,inactive
RNASEL (GeneID 6041),4,-0.98,0.51,inactive
RNASEL (GeneID 6041),5,0.55,0.51,inactive
RNASEL (GeneID 6041),6,1.53,0.51,active
DIPK1B (GeneID 138311),1,-0.43,0.09,inactive
DIPK1B (GeneID 138311),2,-0.09,0.09,inactive
DIPK1B (GeneID 138311),3,0.64,0.09,inactive
DIPK1B (GeneID 138311),4,0.27,0.09,inactive
DIPK1B (GeneID 138311),5,3.82,0.09,active
DIPK1B (GeneID 138311),6,-0.29,0.09,inactive

Not a retest: entries from further up.
target,reagent,"TNF reporter z-score, replicate mean","z-score, median over gene's siRNAs",call
SLC24A3 (GeneID 57419),2,0.18,0.165,inactive
SLC24A3 (GeneID 57419),3,0.38,0.165,inactive
SLC24A3 (GeneID 57419),4,0.15,0.165,inactive
SLC24A3 (GeneID 57419),5,-0.13,0.165,inactive
SLC24A3 (GeneID 57419),6,-1.93,0.165,active
TENT4B (GeneID 64282),1,2.36,1.13,active
TENT4B (GeneID 64282),2,1.58,1.13,active
TENT4B (GeneID 64282),3,0.39,1.13,inactive

Further entries follow.
target,reagent,"TNF reporter z-score, replicate mean","z-score, median over gene's siRNAs",call
DEFA3 (GeneID 1668),1,0.72,0.335,inactive
DEFA3 (GeneID 1668),2,-0.06,0.335,inactive
DEFA3 (GeneID 1668),3,0.81,0.335,inactive
DEFA3 (GeneID 1668),4,0.42,0.335,inactive
DEFA3 (GeneID 1668),5,0.25,0.335,inactive
DEFA3 (GeneID 1668),6,-0.72,0.335,inactive
RPIA (GeneID 22934),1,0.83,-0.085,inactive
RPIA (GeneID 22934),2,-0.8,-0.085,inactive
RPIA (GeneID 22934),3,0.41,-0.085,inactive
RPIA (GeneID 22934),4,0.79,-0.085,inactive
RPIA (GeneID 22934),5,-1.24,-0.085,active
RPIA (GeneID 22934),6,-0.58,-0.085,inactive
IHO1 (GeneID 339834),1,-0.38,0.61,inactive
IHO1 (GeneID 339834),2,0.33,0.61,inactive
IHO1 (GeneID 339834),3,0.99,0.61,inactive
IHO1 (GeneID 339834),4,0.89,0.61,inactive
IHO1 (GeneID 339834),5,0.99,0.61,inactive
IHO1 (GeneID 339834),6,-1.8,0.61,active
ARL5B (GeneID 221079),1,-1.07,-0.445,active
ARL5B (GeneID 221079),2,-0.84,-0.445,inactive
ARL5B (GeneID 221079),3,1.46,-0.445,inactive
ARL5B (GeneID 221079),4,-1.13,-0.445,active
ARL5B (GeneID 221079),5,0.23,-0.445,inactive
ARL5B (GeneID 221079),6,-0.05,-0.445,inactive
DDR2 (GeneID 4921),1,-1.03,0.37,active
DDR2 (GeneID 4921),2,0.31,0.37,inactive
DDR2 (GeneID 4921),3,0.65,0.37,inactive
DDR2 (GeneID 4921),4,2.4,0.37,active
DDR2 (GeneID 4921),5,0.43,0.37,inactive
DDR2 (GeneID 4921),6,-0.38,0.37,inactive
SF3B1 (GeneID 23451),1,-0.53,-1.27,inactive
SF3B1 (GeneID 23451),2,-1.85,-1.27,active
SF3B1 (GeneID 23451),3,-1.44,-1.27,active
SF3B1 (GeneID 23451),4,-1.1,-1.27,active
SF3B1 (GeneID 23451),5,-1.83,-1.27,active
SF3B1 (GeneID 23451),6,-0.66,-1.27,inactive
BRI3BP (GeneID 140707),1,0.26,-0.325,inactive
BRI3BP (GeneID 140707),2,-0.42,-0.325,inactive
BRI3BP (GeneID 140707),3,-0.15,-0.325,inactive
BRI3BP (GeneID 140707),4,-0.51,-0.325,inactive
BRI3BP (GeneID 140707),5,-0.23,-0.325,inactive
BRI3BP (GeneID 140707),6,-0.79,-0.325,inactive
KCTD17 (GeneID 79734),1,0.66,-0.115,inactive
KCTD17 (GeneID 79734),2,-0.15,-0.115,inactive
KCTD17 (GeneID 79734),3,-0.36,-0.115,inactive
KCTD17 (GeneID 79734),4,-1.64,-0.115,active
KCTD17 (GeneID 79734),5,-0.08,-0.115,inactive
KCTD17 (GeneID 79734),6,0.49,-0.115,inactive
RCAN2 (GeneID 10231),1,-0.12,0.095,inactive
RCAN2 (GeneID 10231),2,-0.29,0.095,inactive
RCAN2 (GeneID 10231),3,0.12,0.095,inactive
RCAN2 (GeneID 10231),4,0.07,0.095,inactive
RCAN2 (GeneID 10231),5,0.55,0.095,inactive
RCAN2 (GeneID 10231),6,2.01,0.095,active
